{
  "source": "paper doi:10.1101/2024.09.08.611708",
  "target": "T1, mCherry-AtATG8A (A. thaliana) (UniProt Q8LEM4)",
  "T1 sequence": "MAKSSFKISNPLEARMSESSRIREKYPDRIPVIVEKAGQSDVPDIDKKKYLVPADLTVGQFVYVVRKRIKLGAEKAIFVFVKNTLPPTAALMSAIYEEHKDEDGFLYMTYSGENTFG",
  "assay": "affinity purification with mass spectrometry",
  "note": "No constants are given. Whether binding was seen depends on the method and setting. Binding seen in cells or lysates may run through a third protein. These calls come from enrichment with a bait or labelling near it, and not all partners need be listed.",
  "data": [
    {"substance": "AtCESAR2 (endogenous)", "values": [
      {"measurement": "binding", "value": "binds"}
    ]}
  ]
}
